The list shows a part of the results.
Compound: Cc1cc(ccc1-c1ccccc1)C(=O)N1CCCN(CC1)C(=O)CCl [compound 10]
Assay: probe-labelled cysteine peptide fold change vs DMSO (competition) (log2 fold change); higher = less target engagement (more negative = stronger competition)
Settings: THP-1, incubation time: 4 h
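Note: competitive profiling in live THP-1 cells: cysteine peptides tagged with an iodoacetamide desthiobiotin (IA-DTB) probe, intensity after compound treatment relative to DMSO-treated cells.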

By UniProt entry, the sequences of proteins in these tests, tags left out. Where a name states a change or a piece, a line headed by the entry shows the natural chain unless it says otherwise.
UniProt Q7Z3D6: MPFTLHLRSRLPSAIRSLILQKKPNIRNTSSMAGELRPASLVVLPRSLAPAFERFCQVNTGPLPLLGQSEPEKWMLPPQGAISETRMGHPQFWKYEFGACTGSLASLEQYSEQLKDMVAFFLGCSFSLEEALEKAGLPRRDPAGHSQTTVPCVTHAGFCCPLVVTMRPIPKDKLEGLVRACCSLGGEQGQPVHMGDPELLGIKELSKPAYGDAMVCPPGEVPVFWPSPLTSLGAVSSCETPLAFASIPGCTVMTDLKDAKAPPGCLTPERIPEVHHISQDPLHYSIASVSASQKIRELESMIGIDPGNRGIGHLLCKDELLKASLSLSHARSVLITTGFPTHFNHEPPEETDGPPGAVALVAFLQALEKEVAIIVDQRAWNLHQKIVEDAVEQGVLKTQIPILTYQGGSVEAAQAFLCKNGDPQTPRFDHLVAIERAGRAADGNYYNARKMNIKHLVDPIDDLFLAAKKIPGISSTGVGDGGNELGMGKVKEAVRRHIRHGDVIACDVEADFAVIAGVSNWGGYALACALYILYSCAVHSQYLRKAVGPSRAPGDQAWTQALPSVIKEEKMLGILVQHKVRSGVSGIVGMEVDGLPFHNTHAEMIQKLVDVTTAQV
UniProt Q8TEH3: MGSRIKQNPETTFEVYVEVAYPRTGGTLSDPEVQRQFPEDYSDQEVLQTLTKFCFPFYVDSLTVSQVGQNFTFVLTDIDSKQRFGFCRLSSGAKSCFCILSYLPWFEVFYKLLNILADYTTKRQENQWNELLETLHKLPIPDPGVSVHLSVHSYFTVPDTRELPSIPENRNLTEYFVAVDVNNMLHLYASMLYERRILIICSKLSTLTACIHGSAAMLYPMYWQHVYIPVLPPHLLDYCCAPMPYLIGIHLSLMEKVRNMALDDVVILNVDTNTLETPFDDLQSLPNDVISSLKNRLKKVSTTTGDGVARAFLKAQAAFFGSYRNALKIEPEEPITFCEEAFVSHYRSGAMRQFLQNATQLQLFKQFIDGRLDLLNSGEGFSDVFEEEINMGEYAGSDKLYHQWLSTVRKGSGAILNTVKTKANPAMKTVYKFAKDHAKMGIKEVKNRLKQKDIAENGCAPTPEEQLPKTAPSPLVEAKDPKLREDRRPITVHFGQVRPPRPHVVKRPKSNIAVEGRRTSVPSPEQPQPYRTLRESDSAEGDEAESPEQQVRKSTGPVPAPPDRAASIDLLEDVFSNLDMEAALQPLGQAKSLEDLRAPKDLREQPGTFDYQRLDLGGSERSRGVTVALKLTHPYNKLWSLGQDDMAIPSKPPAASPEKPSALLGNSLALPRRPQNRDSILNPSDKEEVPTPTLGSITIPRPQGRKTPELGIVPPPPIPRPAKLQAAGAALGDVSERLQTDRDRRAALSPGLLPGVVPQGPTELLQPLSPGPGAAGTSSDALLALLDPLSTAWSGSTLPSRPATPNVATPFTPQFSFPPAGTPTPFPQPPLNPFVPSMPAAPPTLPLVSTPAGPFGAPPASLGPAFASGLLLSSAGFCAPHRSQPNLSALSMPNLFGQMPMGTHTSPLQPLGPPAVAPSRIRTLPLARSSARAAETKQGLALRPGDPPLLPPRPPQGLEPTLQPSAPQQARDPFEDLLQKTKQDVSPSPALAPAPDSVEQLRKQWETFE
UniProt A2RUS2: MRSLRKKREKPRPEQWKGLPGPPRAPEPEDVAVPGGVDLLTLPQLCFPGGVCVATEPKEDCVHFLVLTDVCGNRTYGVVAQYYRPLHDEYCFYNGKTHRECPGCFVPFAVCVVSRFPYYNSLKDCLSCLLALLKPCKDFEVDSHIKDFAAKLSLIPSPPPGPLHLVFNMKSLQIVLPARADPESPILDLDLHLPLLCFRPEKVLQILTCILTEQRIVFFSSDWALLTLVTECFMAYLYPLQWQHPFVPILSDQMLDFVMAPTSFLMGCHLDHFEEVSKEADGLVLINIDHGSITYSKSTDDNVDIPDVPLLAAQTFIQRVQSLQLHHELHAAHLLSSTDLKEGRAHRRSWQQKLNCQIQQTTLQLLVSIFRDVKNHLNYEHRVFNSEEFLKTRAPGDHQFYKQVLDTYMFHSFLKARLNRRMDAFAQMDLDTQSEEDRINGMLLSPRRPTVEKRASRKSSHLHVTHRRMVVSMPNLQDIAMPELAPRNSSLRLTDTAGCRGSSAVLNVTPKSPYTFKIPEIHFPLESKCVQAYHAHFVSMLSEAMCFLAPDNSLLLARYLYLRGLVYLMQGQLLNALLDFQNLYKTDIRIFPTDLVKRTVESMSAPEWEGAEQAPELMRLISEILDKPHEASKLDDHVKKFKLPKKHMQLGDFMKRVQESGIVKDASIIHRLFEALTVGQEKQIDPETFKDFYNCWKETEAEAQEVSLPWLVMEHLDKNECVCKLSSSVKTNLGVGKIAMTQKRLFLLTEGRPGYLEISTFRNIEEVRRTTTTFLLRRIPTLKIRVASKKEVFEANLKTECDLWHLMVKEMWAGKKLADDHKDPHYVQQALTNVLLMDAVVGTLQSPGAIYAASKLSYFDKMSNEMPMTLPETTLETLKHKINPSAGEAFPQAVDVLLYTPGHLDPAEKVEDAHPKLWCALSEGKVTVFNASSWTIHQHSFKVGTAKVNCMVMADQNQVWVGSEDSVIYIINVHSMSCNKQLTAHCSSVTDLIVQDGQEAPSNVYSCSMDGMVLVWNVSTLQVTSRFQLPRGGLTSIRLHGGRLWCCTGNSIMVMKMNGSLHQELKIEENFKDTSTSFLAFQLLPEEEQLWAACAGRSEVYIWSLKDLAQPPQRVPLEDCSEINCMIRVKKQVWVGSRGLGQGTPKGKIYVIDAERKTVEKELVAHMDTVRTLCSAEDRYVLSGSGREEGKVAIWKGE
UniProt Q92499: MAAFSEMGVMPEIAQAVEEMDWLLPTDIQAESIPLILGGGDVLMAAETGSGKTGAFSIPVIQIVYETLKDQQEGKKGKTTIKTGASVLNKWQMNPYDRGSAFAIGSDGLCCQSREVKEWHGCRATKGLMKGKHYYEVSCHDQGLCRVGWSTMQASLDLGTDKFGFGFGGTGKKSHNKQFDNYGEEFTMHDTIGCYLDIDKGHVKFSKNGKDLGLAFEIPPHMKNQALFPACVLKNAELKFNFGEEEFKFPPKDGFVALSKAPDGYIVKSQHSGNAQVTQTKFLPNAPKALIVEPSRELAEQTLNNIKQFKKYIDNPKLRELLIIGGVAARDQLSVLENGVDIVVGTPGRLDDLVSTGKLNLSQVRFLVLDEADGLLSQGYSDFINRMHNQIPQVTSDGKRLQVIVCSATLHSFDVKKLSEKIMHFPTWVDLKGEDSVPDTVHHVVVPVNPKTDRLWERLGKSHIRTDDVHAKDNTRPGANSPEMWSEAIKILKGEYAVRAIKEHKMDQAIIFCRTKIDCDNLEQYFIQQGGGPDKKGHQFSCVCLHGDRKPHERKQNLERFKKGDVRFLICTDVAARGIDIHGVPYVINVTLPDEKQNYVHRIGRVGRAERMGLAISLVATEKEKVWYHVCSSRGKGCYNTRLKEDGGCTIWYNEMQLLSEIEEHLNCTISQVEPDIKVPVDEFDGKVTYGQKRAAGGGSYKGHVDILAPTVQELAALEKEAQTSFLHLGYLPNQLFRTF
UniProt Q9UJV9: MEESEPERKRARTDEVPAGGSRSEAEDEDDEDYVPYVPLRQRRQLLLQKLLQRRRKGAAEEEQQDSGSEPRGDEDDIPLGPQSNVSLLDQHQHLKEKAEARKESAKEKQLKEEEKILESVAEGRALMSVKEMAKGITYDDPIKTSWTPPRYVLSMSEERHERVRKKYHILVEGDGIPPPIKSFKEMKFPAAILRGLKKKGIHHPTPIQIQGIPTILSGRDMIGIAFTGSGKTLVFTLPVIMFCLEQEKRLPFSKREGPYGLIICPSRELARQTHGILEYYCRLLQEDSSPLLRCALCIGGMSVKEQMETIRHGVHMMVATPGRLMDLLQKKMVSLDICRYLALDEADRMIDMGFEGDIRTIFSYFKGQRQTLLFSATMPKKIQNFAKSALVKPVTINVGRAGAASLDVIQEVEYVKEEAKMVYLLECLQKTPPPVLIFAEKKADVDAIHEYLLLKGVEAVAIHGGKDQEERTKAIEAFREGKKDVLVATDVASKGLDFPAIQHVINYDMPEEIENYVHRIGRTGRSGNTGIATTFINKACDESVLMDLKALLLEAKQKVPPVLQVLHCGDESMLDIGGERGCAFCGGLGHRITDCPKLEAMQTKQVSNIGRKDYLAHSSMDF
UniProt Q8N8A6: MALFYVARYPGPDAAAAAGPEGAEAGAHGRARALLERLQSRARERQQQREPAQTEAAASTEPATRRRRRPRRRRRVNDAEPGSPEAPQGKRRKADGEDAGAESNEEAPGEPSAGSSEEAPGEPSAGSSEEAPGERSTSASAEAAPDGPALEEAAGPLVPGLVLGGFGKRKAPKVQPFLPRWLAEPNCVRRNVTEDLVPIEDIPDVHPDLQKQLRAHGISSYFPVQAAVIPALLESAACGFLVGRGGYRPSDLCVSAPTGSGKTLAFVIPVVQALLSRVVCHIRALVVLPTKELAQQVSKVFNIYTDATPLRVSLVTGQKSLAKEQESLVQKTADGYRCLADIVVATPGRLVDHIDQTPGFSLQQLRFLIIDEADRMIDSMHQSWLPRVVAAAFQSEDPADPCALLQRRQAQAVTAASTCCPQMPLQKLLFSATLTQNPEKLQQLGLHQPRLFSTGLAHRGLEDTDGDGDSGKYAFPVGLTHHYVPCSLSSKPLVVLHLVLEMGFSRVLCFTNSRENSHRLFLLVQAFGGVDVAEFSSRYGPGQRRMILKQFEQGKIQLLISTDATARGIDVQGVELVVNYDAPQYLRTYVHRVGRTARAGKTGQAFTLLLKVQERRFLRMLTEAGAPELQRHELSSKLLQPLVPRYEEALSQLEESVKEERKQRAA
UniProt Q9GZR7: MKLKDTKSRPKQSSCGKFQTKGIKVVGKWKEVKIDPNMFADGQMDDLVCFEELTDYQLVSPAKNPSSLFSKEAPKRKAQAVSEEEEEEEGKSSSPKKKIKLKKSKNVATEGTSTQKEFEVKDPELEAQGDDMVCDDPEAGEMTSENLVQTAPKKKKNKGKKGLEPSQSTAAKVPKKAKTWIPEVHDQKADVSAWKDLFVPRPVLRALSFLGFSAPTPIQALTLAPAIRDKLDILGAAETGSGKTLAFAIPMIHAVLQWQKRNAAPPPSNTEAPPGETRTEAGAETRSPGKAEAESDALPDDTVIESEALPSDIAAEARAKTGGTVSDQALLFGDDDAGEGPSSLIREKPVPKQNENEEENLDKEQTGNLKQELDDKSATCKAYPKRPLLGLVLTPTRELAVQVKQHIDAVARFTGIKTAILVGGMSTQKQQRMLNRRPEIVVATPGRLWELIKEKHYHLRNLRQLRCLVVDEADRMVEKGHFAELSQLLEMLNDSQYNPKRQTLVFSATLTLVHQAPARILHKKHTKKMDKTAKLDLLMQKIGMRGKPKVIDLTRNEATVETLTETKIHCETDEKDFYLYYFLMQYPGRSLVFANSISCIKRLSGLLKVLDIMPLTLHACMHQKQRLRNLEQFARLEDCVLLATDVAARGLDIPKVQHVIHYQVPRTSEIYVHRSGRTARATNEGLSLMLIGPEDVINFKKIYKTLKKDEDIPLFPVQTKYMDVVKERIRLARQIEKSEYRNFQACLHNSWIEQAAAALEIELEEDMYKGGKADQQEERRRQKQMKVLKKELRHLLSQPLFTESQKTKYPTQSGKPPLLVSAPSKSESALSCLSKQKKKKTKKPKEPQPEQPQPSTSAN
UniProt P26196: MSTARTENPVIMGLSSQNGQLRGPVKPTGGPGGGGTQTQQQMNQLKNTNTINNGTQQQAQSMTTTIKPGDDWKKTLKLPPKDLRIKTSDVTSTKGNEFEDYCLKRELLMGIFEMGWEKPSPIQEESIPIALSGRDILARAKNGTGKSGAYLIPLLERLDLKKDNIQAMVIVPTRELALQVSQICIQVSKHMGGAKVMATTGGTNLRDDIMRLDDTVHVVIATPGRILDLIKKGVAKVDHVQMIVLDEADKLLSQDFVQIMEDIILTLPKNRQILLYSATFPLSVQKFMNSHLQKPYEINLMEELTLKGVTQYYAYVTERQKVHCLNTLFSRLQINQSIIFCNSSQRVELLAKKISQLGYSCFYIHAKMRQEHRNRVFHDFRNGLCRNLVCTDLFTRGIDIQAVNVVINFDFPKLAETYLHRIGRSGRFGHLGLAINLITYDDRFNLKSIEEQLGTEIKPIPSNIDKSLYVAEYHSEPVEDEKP
UniProt Q9NUI1: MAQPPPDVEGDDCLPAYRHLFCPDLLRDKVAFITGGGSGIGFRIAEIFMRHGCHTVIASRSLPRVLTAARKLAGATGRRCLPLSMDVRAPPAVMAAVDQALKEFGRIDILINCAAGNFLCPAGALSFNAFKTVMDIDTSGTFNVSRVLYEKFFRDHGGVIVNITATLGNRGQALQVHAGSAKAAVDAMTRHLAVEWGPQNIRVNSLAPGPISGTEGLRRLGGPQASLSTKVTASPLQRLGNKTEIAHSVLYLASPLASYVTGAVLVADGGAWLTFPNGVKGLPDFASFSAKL

| Target | probe-labelled cysteine peptide fold change (10 µM) | probe-labelled cysteine peptide fold change (50 µM) |
| --- | --- | --- |
| DEF6_Q9H4E7_246+253_WFQLQPSCLCYFGSEECK (UniProt Q9H4E7) | 0.124 | -0.45 |
| DDX42_Q86XP3_339+346_ELCQQIHAECK (UniProt Q86XP3) | -0.0649 | -0.047 |
| DHCR24_Q15392_393_CLQQALHTFQNDIHVYPIWLCPFILPSQPGLVHPK (UniProt Q15392) | -0.136 | 0.103 |
| DGLUCY_Q7Z3D6_100_YEFGACTGSLASLEQYSEQLK (UniProt Q7Z3D6) | 0.179 | -0.106 |
| DGKA_P23743_432_ILVCGGDGTVGWILETIDK (UniProt P23743) | 0.251 | 0.141 |
| DENND1A_Q8TEH3_338_IEPEEPITFCEEAFVSHYR (UniProt Q8TEH3) | -0.218 | -0.462 |
| DDB1_Q16531_128_PSETGIIGIIDPECR (UniProt Q16531) | 0.0742 | 0.0729 |
| DDX56_Q9NY93_185_SLLCHLPR (UniProt Q9NY93) | 0.611 | 0.666 |
| DDHD2_O94830_207+227_RGVENISVDIHCGEPLQIDHLVFVVHGIGPACDLR (UniProt O94830) | 0.185 | 0.142 |
| DENND1A_Q8TEH3_459_DIAENGCAPTPEEQLPK (UniProt Q8TEH3) | -0.162 | -0.204 |
| DENND3_A2RUS2_801_TECDLWHLMVK (UniProt A2RUS2) | -0.103 | -0.116 |
| DDX39A_O00148_238_DIRPVCR (UniProt O00148) | -0.1 | -0.00495 |
| DDX1_Q92499_544_KGHQFSCVCLHGDR (UniProt Q92499) | 0.0322 | -0.0152 |
| DDX1_Q92499_631_VWYHVCSSR (UniProt Q92499) | 0.0796 | 0.0965 |
| DENND3_A2RUS2_197_ADPESPILDLDLHLPLLCFRPEK (UniProt A2RUS2) | 0.139 | 0.293 |
| DECR1_Q16698_116_VHAIQCDVR (UniProt Q16698) | -0.122 | 0.199 |
| DDX41_Q9UJV9_568_VPPVLQVLHCGDESMLDIGGER (UniProt Q9UJV9) | -0.0594 | -0.148 |
| DDX39B_Q13838_300_CIALAQLLVEQNFPAIAIHR (UniProt Q13838) | 0.445 | 0.435 |
| DDX1_Q92499_406_LQVIVCSATLHSFDVK (UniProt Q92499) | 0.0985 | 0.138 |
| DDX54_Q8TDD1_73_LGPGRPLPTFPTSECTSDVEPDTR (UniProt Q8TDD1) | -0.0432 | -0.0456 |
| DDX42_Q86XP3_281_KSEYTQPTPIQCQGVPVALSGR (UniProt Q86XP3) | -0.179 | -0.1 |

3 records drawn at random from the list so far, as already listed:

| Target | probe-labelled cysteine peptide fold change (10 µM) | probe-labelled cysteine peptide fold change (50 µM) |
| --- | --- | --- |
| DDX56_Q9NY93_185_SLLCHLPR (UniProt Q9NY93) | 0.611 | 0.666 |
| DDX1_Q92499_406_LQVIVCSATLHSFDVK (UniProt Q92499) | 0.0985 | 0.138 |
| DDX39B_Q13838_300_CIALAQLLVEQNFPAIAIHR (UniProt Q13838) | 0.445 | 0.435 |

(listing goes on)

| Target | probe-labelled cysteine peptide fold change (10 µM) | probe-labelled cysteine peptide fold change (50 µM) |
| --- | --- | --- |
| DGCR8_Q8WYQ5_657_SEYVMACGK (UniProt Q8WYQ5) | -0.101 | -0.266 |
| DENND4A_Q7Z401_648_DASLAFFDDCVDKVDMDK (UniProt Q7Z401) | -0.206 | -0.185 |
| DDX51_Q8N8A6_187_WLAEPNCVR (UniProt Q8N8A6) | -0.15 | -0.388 |
| DDX1_Q92499_519_TKIDCDNLEQYFIQQGGGPDKK (UniProt Q92499) | -0.155 | -0.62 |
| DDX1_Q92499_571_FLICTDVAAR (UniProt Q92499) | 0.102 | -0.157 |
| DGKH_Q86XP1_995_THLYIHHAIDLATEEVSQMQLCSQAAEELITR (UniProt Q86XP1) | -0.0192 | 0.0692 |
| DDX17_Q92841_319_CTYLVLDEADRMLDMGFEPQIR (UniProt Q92841) | 0.023 | -0.374 |
| DDX42_Q86XP3_346_ELCQQIHAECK (UniProt Q86XP3) | 0.127 | 0.218 |
| DDX19A_Q9NUU7_166_YPQCLCLSPTYELALQTGK (UniProt Q9NUU7) | 0.128 | 0.117 |
| DENND4A_Q7Z401_35_PLEEEIHFNDACHK (UniProt Q7Z401) | -0.0984 | -0.131 |
| DDX54_Q8TDD1_149_TACFLLPMFER (UniProt Q8TDD1) | 0.0592 | 0.213 |
| DDX51_Q8N8A6_338_CLADIVVATPGR (UniProt Q8N8A6) | -0.00575 | -0.0889 |
| DENND4C_Q5VZ89_88_SPELFLCYK (UniProt Q5VZ89) | 0.355 | -0.178 |
| DDX27_Q96GQ7_248_ACIPVGLLGK (UniProt Q96GQ7) | 0.238 | -0.122 |
| DDX1_Q92499_519_IDCDNLEQYFIQQGGGPDKK (UniProt Q92499) | -0.0404 | -0.14 |
| DDX21_Q9NR30_291_LSVACFYGGTPYGGQFER (UniProt Q9NR30) | 0.173 | 0.193 |
| DDX41_Q9UJV9_338_MVSLDICR (UniProt Q9UJV9) | -0.0253 | -0.0851 |
| DDX24_Q9GZR7_599_SLVFANSISCIK (UniProt Q9GZR7) | 0.147 | 0.498 |
| DDX39A_O00148_62_AIVDCGFEHPSEVQHECIPQAILGMDVLCQAK (UniProt O00148) | 0.144 | 0.0705 |
| DENND6A_Q8IWF6_130_VSLHCLLDQFDK (UniProt Q8IWF6) | 0.295 | 1.1 |
| DGLUCY_Q7Z3D6_316_GIGHLLCKDELLK (UniProt Q7Z3D6) | -0.162 | -0.764 |

| Target | probe-labelled cysteine peptide fold change (10 µM) | probe-labelled cysteine peptide fold change (50 µM) |
| --- | --- | --- |
| DDX23_Q9BUQ8_519_MGCEIVIATPGR (UniProt Q9BUQ8) | 0.214 | 0.193 |
| DDX58_O95786_869_QNCSHDWGIHVK (UniProt O95786) | -0.162 | -0.146 |
| DGCR8_Q8WYQ5_627_AGLLSPYQILHECLK (UniProt Q8WYQ5) | 0.505 | 0.0758 |
| DDX17_Q92841_319_RCTYLVLDEADR (UniProt Q92841) | -0.00104 | 0.178 |
| DGKE_P52429_177_CDFGEFK (UniProt P52429) | -0.0751 | -0.0659 |
| DDX41_Q9UJV9_264_EGPYGLIICPSR (UniProt Q9UJV9) | -0.156 | -0.423 |
| DECR1_Q16698_116_VHAIQCDVRDPDMVQNTVSELIK (UniProt Q16698) | 0.000298 | 0.149 |
| DDX6_P26196_390_NLVCTDLFTR (UniProt P26196) | 0.156 | -0.0746 |
| DDX42_Q86XP3_382_ALQEGAEIVVCTPGR (UniProt Q86XP3) | 0.218 | 0.244 |
| DDX17_Q92841_397_DYTQINVGNLELSANHNILQIVDVCMESEK (UniProt Q92841) | 0.106 | -0.0869 |
| DDX5_P17844_320_DYIHINIGALELSANHNILQIVDVCHDVEKDEK (UniProt P17844) | -0.18 | -0.432 |
| DDX3X_O00571_223_RDLMACAQTGSGK (UniProt O00571) | -0.107 | 0.0744 |
| DDX50_Q9BQ39_633_GNMGVCFDVPTTESER (UniProt Q9BQ39) | -0.00706 | -0.272 |
| DENND3_A2RUS2_91_TYGVVAQYYRPLHDEYCFYNGK (UniProt A2RUS2) | -0.0563 | -0.429 |
| DDX5_P17844_320_DYIHINIGALELSANHNILQIVDVCHDVEK (UniProt P17844) | 0.141 | 0.363 |
| DDX60L_Q5H9U9_1127_AGSVCTFLEK (UniProt Q5H9U9) | -0.0904 | 0.191 |
| DDX17_Q92841_319_CTYLVLDEADR (UniProt Q92841) | 0.178 | 0.0942 |
| DDHD2_O94830_470_ESEFCSSSNTR (UniProt O94830) | -0.28 | -0.538 |
| DEF6_Q9H4E7_246_WFQLQPSCLCYFGSEECK (UniProt Q9H4E7) | 0.0146 | -0.0268 |
| DECR2_Q9NUI1_13_AQPPPDVEGDDCLPAYR (UniProt Q9NUI1) | 0.286 | 0.364 |
| DGKZ_Q13574_713_IQDLKPQCVVFLNIPR (UniProt Q13574) | -0.0234 | -0.109 |

| Target | probe-labelled cysteine peptide fold change (10 µM) | probe-labelled cysteine peptide fold change (50 µM) |
| --- | --- | --- |
| DDX24_Q9GZR7_467_CLVVDEADRMVEK (UniProt Q9GZR7) | 0.0575 | -0.0421 |
| DDX18_Q9NVP1_407_ANATVDGLEQGYVVCPSEK (UniProt Q9NVP1) | -0.401 | 0.698 |
| DDX6_P26196_361_ISQLGYSCFYIHAK (UniProt P26196) | -0.0144 | 0.339 |
| DECR2_Q9NUI1_53_HGCHTVIASR (UniProt Q9NUI1) | 0.299 | 0.399 |
| DENND4A_Q7Z401_952_GSADCLPK (UniProt Q7Z401) | -0.312 | 0.101 |
| DDX42_Q86XP3_346_ELCQQIHAECKR (UniProt Q86XP3) | 0.138 | 0.04 |
| DDX59_Q5T1V6_208_QQLGILVQGQEVTRPIIDFEHCSLPEVLNHNLKK (UniProt Q5T1V6) | -0.0669 | -0.4 |
| DGCR8_Q8WYQ5_91_LLIDPNCSGHSPR (UniProt Q8WYQ5) | -0.107 | -0.0445 |
| DGKH_Q86XP1_1014_ICDAATIHCLLEQELAHAVNACSHALNK (UniProt Q86XP1) | -0.0302 | -0.505 |
| DESI1_Q6ICB0_108_GEAYNLFEHNCNTFSNEVAQFLTGR (UniProt Q6ICB0) | -0.076 | -1.61 |
| DENND4B_O75064_815_VVLPDEVCYR (UniProt O75064) | -0.158 | 0.0606 |
| DDX3X_O00571_128_WCDKSDEDDWSK (UniProt O00571) | -0.303 | -1.35 |
| DDX17_Q92841_431_RCDDLTR (UniProt Q92841) | -0.219 | 0.0768 |
| DDX1_Q92499_513_MDQAIIFCR (UniProt Q92499) | 0.298 | 0.237 |
| DHCR24_Q15392_499_LGCQDAFPEVYDK (UniProt Q15392) | -0.106 | -0.0376 |
| DDX24_Q9GZR7_620_VLDIMPLTLHACMHQK (UniProt Q9GZR7) | -0.021 | 0.133 |
| DDX41_Q9UJV9_281_QTHGILEYYCR (UniProt Q9UJV9) | 0.0444 | 0.149 |
| DDX60L_Q5H9U9_615_KLEDYLTSCASNSVK (UniProt Q5H9U9) | -0.279 | 0.172 |
| DDX46_Q7L014_590_SVVCSDVEQQVIVIEEEKK (UniProt Q7L014) | -0.261 | -0.261 |
| DHPS_P49366_177_IGNLLVPNENYCK (UniProt P49366) | -0.153 | -0.161 |

Source: the supplement of paper PMC12067093, “Discovery and optimisation of a covalent ligand for TRIM25 and its application to targeted protein ubiquitination” (Chemical Science, 2025)
